In PMC10989506 (RSC Chemical Biology, 2024):
Strings that start with PEPTIDE1 are HELM notation: dots part the residues, brackets hold end groups and non-standard residues.

Assay: general procedure: Fmoc solid-phase peptide synthesis; 2-chlorotrityl chloride (2-CTC) resin
Conditions: conjugation step

Substance: PEPTIDE1{P.D.L.[Lys(ct)].[PheOdzEt]}$PEPTIDE1,PEPTIDE1,1:R1-5:R2$$$V2.0
- conjugation yield: 39.3%
